No constants are given. Whether binding was seen depends on the method and setting. Some binding calls cover weakened binding; strength is not graded here.

The chains behind the UniProt entries cited, without tags or fusion partners. Residues count along the entry.
UniProt P11276, residues 33-2477: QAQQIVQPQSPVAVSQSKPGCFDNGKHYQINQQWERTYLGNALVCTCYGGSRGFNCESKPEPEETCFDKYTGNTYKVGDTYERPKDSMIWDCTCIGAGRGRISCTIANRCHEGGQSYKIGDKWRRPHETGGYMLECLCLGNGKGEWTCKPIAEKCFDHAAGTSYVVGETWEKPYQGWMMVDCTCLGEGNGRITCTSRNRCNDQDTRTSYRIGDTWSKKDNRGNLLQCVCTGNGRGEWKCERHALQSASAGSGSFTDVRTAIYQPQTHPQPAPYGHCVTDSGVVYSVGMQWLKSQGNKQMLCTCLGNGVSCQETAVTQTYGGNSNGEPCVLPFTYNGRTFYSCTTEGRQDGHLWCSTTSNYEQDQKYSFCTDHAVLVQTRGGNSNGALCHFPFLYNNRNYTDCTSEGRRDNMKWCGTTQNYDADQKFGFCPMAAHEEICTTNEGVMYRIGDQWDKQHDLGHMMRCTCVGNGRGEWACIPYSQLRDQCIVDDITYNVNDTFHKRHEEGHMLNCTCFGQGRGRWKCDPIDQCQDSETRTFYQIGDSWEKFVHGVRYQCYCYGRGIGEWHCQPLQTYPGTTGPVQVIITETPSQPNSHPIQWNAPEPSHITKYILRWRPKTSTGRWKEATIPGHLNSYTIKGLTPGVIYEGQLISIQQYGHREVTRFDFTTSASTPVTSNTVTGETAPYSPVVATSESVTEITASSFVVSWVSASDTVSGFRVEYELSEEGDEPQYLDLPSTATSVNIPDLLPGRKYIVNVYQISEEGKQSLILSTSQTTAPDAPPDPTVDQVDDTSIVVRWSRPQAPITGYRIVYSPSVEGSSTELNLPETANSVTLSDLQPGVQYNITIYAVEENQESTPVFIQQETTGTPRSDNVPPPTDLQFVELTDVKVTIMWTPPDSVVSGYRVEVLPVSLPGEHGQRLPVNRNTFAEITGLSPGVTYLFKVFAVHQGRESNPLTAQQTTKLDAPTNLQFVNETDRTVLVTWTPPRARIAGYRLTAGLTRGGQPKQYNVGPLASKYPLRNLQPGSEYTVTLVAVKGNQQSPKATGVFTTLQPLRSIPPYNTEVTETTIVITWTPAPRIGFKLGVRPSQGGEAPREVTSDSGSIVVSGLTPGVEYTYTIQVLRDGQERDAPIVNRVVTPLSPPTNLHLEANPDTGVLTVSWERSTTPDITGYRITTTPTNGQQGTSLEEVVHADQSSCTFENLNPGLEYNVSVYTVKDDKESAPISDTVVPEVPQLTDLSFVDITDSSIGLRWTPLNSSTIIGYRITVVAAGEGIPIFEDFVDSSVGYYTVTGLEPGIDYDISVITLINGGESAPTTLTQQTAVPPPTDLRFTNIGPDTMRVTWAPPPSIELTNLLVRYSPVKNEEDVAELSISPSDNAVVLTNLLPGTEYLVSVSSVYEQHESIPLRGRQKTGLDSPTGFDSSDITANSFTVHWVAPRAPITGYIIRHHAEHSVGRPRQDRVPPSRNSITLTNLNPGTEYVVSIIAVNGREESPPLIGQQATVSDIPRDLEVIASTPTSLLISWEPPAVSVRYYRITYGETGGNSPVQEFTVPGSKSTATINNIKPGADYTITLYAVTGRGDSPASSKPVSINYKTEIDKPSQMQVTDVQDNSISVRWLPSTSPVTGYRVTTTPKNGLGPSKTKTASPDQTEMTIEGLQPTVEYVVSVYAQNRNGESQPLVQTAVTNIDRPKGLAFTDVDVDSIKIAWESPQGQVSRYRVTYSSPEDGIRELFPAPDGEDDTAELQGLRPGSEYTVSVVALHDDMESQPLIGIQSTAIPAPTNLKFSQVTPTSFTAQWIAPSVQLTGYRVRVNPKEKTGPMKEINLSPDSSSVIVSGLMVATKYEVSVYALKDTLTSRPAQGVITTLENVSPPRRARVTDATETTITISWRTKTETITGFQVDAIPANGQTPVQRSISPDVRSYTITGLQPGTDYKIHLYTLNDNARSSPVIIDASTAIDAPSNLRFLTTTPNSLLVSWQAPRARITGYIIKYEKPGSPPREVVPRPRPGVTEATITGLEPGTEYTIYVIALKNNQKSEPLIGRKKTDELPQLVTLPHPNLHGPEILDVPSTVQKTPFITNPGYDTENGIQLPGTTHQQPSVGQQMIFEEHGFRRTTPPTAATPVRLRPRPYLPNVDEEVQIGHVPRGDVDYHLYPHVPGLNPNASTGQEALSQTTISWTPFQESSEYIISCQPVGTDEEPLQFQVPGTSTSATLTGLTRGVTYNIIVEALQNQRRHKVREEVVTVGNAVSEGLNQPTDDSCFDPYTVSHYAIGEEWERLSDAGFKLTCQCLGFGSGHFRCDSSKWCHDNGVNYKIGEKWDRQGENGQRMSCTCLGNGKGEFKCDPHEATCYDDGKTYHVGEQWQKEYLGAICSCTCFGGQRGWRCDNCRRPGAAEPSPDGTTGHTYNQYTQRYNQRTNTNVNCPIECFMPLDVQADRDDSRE

Assay [1] has as its target ED-A isoform of fibronectin (A-FN) in mouse tissue cryosections (mouse) (UniProt P11276). As to the kind of experiment: immunofluorescence, SIP format antibody at 2 µg/ml on frozen pancreas sections of diabetic mice.
Assay [2] shares this target. The experiment in a line: immunofluorescence, biotinylated F8-IL4 on acetone-fixed tumour cryosections.

B1: F8-SIP (antibody F8 in SIP format) (antibody, human IgE)
chain: EVQLLESGGGLVQPGGSLRLSCAASGFTFSLFTMSWVRQAPGKGLEWVSAISGSGGSTYYADSVKGRFTISRDNSKNTLYLQMNSLRAEDTAVYYCAKSTHLYLFDYWGQGTLVTVSSGGGGSGGGGSGGGGEIVLTQSPGTLSLSPGERATLSCRASQSVSMPFLAWYQQKPGQAPRLLIYGASSRATGIPDRFSGSGSGTDFTLTISRLEPEDFAVYYCQQMRGRPPTFGQGTKVEIKSGGSGGPRAAPEVYAFATPEWPGSRDKRTLACLIQNFMPEDISVQWLHNEVQLPDARHSTTQPRKTKGSGFFVFSRLEVTRAEWEQKDEFICRAVHEAASPSQTVQRAVSVNPESSRRGGC
For B1, the binding entry in assay [1] is on record as “binds”.

B2: F8-IL4 (F8-(murine) IL4) (protein)
chain: EVQLLESGGGLVQPGGSLRLSCAASGFTFSLFTMSWVRQAPGKGLEWVSAISGSGGSTYYADSVKGRFTISRDNSKNTLYLQMNSLRAEDTAVYYCAKSTHLYLFDYWGQGTLVTVSSGGSGGEIVLTQSPGTLSLSPGERATLSCRASQSVSMPFLAWYQQKPGQAPRLLIYGASSRATGIPDRFSGSGSGTDFTLTISRLEPEDFAVYYCQQMRGRPPTFGQGTKVEIKSSSSGSSSSGSSSSGHIHGCDKNHLREIIGILNEVTGEGTPCTEMDVPNVLTATKNTTESELVCRASKVLRIFYLKHGKTPCLKKNSSVLMELQRLFRAFRCLDSSISCTMNESKSTSLKDFLESLKSIMQMDYS
For B2, in assay [2], the binding result is recorded as “binds”.

The values above are taken from US20160200789A1, “IL4 CONJUGATED TO ANTIBODIES AGAINST EXTRACELLULAR MATRIX COMPONENTS” (PHILOGEN S.P.A., priority 2013, published 2016).
